Results: PMC3748051
No constants are given. Whether binding was seen depends on the method and setting. Some binding calls cover weakened binding; strength is not graded here.

Target: cervid recPrP 89-231 (cervid) (UniProt Q7JIQ1)
Assay: ThT fluorescence kinetics of de novo fibrillation; both purified

Substance: cervid recPrP 89-231 (from UniProt Q7JIQ1 89-231) (domain or fragment)
- binding: binds
